Test results reported in the supplement of paper PMC12823440, “Inhibitors supercharge kinase turnover through native proteolytic circuits” (Nature, 2025).
Where a name gives a salt, the structure may show the parent alone. This is one part of the list. Hit calls seldom repeat between salt and free forms of one compound.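 Kinases were expressed as nanoluciferase fusions in K562 cells and luminescence was read every 4 h between 2 and 18 h as percent of control, DMSO set to 100% and a positive control to 0%. A time point counts as decreased when the signal drops significantly (2 sigma). The hit call is the authors' own, does not follow from the count of time points alone, and its rule is not shown.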

Amino acid sequences for entries named in this document (tags omitted). A change or cut given only in a name is not applied to a line headed by its entry.
UniProt O75460: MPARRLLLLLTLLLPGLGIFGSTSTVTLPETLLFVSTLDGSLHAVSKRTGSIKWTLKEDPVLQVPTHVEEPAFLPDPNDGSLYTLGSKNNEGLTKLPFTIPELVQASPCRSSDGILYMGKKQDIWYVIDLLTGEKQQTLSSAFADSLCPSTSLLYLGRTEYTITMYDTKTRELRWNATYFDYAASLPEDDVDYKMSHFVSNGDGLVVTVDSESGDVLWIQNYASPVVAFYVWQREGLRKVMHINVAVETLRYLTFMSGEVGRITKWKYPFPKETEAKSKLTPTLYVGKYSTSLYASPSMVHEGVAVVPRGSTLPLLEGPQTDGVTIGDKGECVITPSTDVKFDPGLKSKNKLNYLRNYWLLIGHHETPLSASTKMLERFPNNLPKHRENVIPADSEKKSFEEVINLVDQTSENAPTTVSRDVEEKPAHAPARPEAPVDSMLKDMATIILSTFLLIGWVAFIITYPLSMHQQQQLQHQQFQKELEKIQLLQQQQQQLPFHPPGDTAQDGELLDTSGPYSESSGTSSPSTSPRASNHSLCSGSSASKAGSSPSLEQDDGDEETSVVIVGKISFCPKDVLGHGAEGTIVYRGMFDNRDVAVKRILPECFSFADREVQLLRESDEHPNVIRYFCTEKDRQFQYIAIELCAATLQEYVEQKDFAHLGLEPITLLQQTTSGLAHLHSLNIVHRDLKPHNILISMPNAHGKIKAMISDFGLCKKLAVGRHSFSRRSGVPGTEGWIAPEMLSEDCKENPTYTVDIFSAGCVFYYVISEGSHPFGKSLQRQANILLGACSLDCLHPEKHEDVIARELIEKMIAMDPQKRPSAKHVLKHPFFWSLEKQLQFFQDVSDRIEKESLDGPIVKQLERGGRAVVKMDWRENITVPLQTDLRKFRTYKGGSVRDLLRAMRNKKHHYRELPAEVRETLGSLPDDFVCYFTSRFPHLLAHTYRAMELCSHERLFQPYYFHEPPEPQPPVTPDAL
UniProt P11362, whole entry, looked up: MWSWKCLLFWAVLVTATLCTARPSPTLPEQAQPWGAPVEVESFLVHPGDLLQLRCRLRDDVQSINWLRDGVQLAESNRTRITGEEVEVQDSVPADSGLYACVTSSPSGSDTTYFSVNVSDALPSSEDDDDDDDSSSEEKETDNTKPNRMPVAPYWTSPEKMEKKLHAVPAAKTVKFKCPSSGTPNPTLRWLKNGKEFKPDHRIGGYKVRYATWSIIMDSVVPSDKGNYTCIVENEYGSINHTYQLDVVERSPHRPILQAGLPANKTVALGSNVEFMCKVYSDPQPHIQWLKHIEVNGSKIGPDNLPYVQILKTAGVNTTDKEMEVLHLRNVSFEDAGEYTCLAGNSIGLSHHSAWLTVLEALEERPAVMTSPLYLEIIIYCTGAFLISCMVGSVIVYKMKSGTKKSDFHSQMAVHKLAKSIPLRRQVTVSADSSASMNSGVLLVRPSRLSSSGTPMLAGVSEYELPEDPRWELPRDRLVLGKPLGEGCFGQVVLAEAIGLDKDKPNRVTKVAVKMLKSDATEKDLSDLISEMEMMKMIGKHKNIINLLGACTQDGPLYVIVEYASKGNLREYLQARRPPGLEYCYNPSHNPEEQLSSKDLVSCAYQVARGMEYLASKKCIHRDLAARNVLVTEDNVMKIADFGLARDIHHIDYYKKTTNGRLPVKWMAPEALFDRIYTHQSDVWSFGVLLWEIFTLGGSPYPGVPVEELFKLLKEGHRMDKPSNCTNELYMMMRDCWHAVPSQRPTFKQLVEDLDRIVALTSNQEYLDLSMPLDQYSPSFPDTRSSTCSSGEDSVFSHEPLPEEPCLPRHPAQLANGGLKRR
UniProt P21802, whole entry, looked up: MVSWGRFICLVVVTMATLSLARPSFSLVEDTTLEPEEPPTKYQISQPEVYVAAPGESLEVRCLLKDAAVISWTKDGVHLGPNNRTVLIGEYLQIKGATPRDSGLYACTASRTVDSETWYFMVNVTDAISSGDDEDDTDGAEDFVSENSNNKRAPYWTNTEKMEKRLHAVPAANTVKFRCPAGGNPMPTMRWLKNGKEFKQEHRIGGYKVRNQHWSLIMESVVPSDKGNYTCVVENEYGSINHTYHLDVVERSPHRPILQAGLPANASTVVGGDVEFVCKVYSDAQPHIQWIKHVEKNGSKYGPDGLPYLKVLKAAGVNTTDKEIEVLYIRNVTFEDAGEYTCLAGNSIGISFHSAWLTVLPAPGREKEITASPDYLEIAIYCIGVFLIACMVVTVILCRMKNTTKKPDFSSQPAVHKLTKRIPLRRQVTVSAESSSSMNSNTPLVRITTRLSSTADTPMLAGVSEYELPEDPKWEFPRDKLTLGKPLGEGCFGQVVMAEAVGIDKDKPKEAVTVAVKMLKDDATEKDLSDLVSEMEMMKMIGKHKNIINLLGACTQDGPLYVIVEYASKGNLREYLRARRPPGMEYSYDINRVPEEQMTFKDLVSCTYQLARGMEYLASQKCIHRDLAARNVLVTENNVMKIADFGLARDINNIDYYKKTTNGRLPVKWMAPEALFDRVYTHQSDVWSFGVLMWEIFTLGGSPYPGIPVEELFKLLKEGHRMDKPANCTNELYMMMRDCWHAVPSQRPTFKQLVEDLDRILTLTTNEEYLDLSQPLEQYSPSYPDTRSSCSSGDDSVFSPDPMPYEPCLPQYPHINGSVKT
UniProt P22607, whole entry, looked up: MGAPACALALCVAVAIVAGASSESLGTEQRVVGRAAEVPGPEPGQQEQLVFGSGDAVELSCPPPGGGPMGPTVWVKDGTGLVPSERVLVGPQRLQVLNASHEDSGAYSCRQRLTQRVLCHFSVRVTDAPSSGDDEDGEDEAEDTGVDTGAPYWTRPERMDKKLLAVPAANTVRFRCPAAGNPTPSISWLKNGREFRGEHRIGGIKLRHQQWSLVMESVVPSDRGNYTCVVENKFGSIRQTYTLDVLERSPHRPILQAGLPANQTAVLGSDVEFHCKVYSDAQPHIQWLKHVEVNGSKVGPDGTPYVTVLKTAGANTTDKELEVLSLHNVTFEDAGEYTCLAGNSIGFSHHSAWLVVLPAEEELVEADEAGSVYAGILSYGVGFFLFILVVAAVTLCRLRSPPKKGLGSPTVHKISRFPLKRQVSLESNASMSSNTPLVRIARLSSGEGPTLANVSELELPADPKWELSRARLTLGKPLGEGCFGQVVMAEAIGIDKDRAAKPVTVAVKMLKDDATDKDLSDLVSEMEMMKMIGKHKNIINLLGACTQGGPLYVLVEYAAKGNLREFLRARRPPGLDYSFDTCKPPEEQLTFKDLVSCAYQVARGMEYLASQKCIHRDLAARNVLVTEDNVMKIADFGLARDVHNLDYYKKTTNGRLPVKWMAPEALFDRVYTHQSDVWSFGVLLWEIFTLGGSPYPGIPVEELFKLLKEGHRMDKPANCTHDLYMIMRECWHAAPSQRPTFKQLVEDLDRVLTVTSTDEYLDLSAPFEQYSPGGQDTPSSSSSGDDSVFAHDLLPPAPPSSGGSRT
UniProt P06241, whole entry, looked up: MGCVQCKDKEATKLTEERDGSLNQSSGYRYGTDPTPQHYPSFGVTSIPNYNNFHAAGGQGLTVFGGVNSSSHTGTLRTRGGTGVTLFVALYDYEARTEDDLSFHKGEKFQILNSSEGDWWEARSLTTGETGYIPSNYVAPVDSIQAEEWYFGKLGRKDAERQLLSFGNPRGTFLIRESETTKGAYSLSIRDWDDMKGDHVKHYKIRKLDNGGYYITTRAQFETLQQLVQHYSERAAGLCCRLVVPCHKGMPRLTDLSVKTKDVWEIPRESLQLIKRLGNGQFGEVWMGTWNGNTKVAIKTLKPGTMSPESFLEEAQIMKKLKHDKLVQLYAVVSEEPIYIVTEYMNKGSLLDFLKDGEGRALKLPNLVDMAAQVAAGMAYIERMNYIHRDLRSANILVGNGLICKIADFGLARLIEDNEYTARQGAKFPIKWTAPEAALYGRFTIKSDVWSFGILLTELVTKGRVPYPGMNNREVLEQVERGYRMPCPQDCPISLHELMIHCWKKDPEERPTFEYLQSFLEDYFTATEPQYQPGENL
UniProt P49840: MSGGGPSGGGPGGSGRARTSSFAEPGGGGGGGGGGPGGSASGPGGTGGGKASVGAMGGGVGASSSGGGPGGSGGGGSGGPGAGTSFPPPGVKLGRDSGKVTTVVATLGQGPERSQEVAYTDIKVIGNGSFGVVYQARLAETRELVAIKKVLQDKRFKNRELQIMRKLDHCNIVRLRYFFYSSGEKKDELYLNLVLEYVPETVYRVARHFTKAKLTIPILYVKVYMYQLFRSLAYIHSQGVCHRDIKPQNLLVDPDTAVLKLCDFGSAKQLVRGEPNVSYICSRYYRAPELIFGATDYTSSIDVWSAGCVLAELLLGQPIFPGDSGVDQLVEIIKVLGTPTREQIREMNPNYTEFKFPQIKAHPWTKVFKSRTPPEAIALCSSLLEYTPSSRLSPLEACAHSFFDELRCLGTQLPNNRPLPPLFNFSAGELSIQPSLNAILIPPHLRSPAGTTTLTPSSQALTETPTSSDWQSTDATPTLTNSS
UniProt P14616: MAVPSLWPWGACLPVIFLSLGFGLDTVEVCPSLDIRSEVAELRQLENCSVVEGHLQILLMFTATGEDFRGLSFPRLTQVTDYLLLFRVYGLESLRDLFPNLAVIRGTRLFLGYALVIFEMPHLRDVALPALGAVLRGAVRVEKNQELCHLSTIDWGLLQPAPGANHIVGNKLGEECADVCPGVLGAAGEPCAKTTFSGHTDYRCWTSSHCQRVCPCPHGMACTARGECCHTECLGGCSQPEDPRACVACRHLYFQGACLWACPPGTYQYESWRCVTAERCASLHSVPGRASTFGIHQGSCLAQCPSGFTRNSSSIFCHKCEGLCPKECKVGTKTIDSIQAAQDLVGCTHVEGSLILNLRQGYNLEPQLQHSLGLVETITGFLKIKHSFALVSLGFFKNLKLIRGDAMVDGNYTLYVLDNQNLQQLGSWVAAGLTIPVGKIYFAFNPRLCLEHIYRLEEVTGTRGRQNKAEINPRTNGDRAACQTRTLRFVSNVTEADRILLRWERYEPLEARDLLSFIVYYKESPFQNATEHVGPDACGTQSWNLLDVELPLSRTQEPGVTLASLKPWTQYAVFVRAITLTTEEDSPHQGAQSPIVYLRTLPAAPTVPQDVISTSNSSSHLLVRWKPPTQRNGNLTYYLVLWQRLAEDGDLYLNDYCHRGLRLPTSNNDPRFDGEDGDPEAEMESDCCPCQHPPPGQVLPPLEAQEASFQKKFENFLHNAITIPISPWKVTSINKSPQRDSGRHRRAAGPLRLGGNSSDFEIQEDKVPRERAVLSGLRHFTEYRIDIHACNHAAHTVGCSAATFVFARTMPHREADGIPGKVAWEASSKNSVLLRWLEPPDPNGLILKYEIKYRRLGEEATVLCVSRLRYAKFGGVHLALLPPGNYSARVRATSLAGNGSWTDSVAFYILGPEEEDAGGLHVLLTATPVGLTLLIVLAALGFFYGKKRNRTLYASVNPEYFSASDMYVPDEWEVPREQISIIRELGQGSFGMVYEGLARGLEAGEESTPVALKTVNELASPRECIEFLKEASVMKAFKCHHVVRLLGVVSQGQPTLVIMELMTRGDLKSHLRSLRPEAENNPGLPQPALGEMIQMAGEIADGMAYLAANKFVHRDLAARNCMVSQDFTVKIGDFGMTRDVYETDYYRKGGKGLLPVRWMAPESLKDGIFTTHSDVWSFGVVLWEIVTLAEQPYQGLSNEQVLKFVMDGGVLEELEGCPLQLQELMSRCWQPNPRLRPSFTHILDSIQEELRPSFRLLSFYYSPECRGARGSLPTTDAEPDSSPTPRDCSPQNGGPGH

Legend:
Test in all cases: kinase-Nluc reporter destabilization hit call (1 = scored as downregulated) (binary); higher = compound decreases kinase abundance
Settings in all cases: K562; 2-18 h
ERN1 = ERN1 (UniProt O75460)
FGFR1 = FGFR1 (UniProt P11362)
FGFR2 = FGFR2 (UniProt P21802)
FGFR3 = FGFR3 (UniProt P22607)
FGR = FGR (UniProt P09769)
FLT3 = FLT3 (UniProt P36888)
FYN = FYN (UniProt P06241)
GSK3A = GSK3A (UniProt P49840)
HER2 = HER2 (UniProt P04626)
INSRR = INSRR (UniProt P14616)

Measured: kinase-Nluc reporter destabilization hit call

O=C(c1ccc(Nc2nccc(-c3cc4ccccc4s3)n2)cc1)N1CCC(N2CCCC2)CC1 (2.5 µM)
inactive: ERN1 = 0 | FGFR1 = 0 | FGFR2 = 0 | FGFR3 = 0 | FGR 0 | FLT3 = 0 | FYN 0 | GSK3A 0 | HER2 = 0 | INSRR 0

C=CC(=O)Nc1cccc(-n2c(=O)cc(C)c3cnc(Nc4ccc(OCCN(C)C)cc4OC)nc32)c1 (10 µM)
inactive: ERN1 = 0 | FGFR1 = 0 | FGFR2 = 0 | FGFR3 = 0 | FGR 0 | FLT3 = 0 | FYN 0 | GSK3A 0 | HER2 = 0 | INSRR 0

Nc1n[nH]c2cc(-c3ccc(=O)n(Cc4cccc(Cl)c4)c3)ccc12 (10 µM)
inactive: ERN1 = 0 | FGFR1 = 0 | FGFR2 = 0 | FGFR3 = 0 | FGR 0 | FLT3 = 0 | FYN 0 | GSK3A 0 | HER2 = 0 | INSRR 0

C[C@@H]1C[C@H]2O[C@@]3(O[C@@H]2C(C)(C)O)[C@H](O)[C@@]2(C)[C@@H]4CC[C@H]5C(C)(C)[C@@H](O[C@@H]6OC[C@H](O)[C@H](O)[C@H]6O)CC[C@@]56C[C@@]46CC[C@]2(C)[C@@H]13 [Cimiracemoside C] (10 µM)
inactive: ERN1 = 0 | FGFR1 = 0 | FGFR2 = 0 | FGFR3 = 0 | FGR 0 | FLT3 = 0 | FYN 0 | GSK3A 0 | HER2 = 0 | INSRR 0

COc1ccc2c(c1OC)OC1c3ccc(O)cc3OCC21 (stereo not given) [Methylnissolin] (10 µM)
inactive: ERN1 = 0 | FGFR1 = 0 | FGFR2 = 0 | FGFR3 = 0 | FGR 0 | FLT3 = 0 | FYN 0 | GSK3A 0 | HER2 = 0 | INSRR 0

Cc1nc(NC(=O)NCCc2nnn(CCF)n2)sc1-c1ccc(S(C)(=O)=O)c(F)c1 (10 µM)
inactive: ERN1 = 0 | FGFR1 = 0 | FGFR2 = 0 | FGFR3 = 0 | FGR 0 | FLT3 = 0 | FYN 0 | GSK3A 0 | HER2 = 0 | INSRR 0

C[C@@H]1O[C@@H](OC[C@H]2O[C@@H](Oc3cc(O)c4c(c3)O[C@H](c3ccc(O)cc3)CC4=O)[C@H](O)[C@@H](O)[C@@H]2O)[C@H](O)[C@H](O)[C@H]1O [Narirutin] (10 µM)
inactive: ERN1 = 0 | FGFR1 = 0 | FGFR2 = 0 | FGFR3 = 0 | FGR 0 | FLT3 = 0 | FYN 0 | GSK3A 0 | HER2 = 0 | INSRR 0

COc1ccc(CN2C3CC2CN(c2ccc(-c4cc(OCC(C)(C)O)cn5ncc(C#N)c45)cn2)C3)cn1 [Selpercatinib] (10 µM)
inactive: ERN1 = 0 | FGFR1 = 0 | FGFR2 = 0 | FGFR3 = 0 | FGR 0 | FLT3 = 0 | FYN 0 | GSK3A 0 | HER2 = 0 | INSRR 0

COc1cc(C(C)=O)cc(OC)c1O [Acetosyringone] (10 µM)
inactive: ERN1 = 0 | FGFR1 = 0 | FGFR2 = 0 | FGFR3 = 0 | FGR 0 | FLT3 = 0 | FYN 0 | GSK3A 0 | HER2 = 0 | INSRR 0

Cc1cc2ncc(-c3ccccc3)nc2cc1C (10 µM)
inactive: ERN1 = 0 | FGFR1 = 0 | FGFR2 = 0 | FGFR3 = 0 | FGR 0 | FLT3 = 0 | FYN 0 | GSK3A 0 | HER2 = 0 | INSRR 0

COC1(C(=O)N[C@@H](C)c2ccc(-n3cc(F)cn3)nc2)CCC(c2nc(C)cc(Nc3cc(C)[nH]n3)n2)CC1 (stereo partly drawn) [trans-Pralsetinib] (2.5 µM)
inactive: ERN1 = 0 | FGFR1 = 0 | FGFR2 = 0 | FGFR3 = 0 | FGR 0 | FLT3 = 0 | FYN 0 | GSK3A 0 | HER2 = 0 | INSRR 0

COc1ccc2c(=O)c(-c3ccccc3)coc2c1 [7-Methoxyisoflavone] (10 µM)
inactive: ERN1 = 0 | FGFR1 = 0 | FGFR2 = 0 | FGFR3 = 0 | FGR 0 | FLT3 = 0 | FYN 0 | GSK3A 0 | HER2 = 0 | INSRR 0

CCOC(=O)c1c2c3c(cccc3[nH]c1=O)C(=O)c1ccccc1-2 (10 µM)
inactive: ERN1 = 0 | FGFR1 = 0 | FGFR2 = 0 | FGFR3 = 0 | FGR 0 | FLT3 = 0 | FYN 0 | GSK3A 0 | HER2 = 0 | INSRR 0

Nc1[nH]c(=O)nc2c1ncn2[C@@H]1O[C@H](CO)[C@@H](O)[C@H]1O [Crotonoside] (10 µM)
inactive: ERN1 = 0 | FGFR1 = 0 | FGFR2 = 0 | FGFR3 = 0 | FGR 0 | FLT3 = 0 | FYN 0 | GSK3A 0 | HER2 = 0 | INSRR 0

CC1=C(C(=O)Nc2ccc3[nH]ncc3c2)C(c2ccc(F)cc2)NC(=O)N1 (stereo not given) (10 µM)
inactive: ERN1 = 0 | FGFR1 = 0 | FGFR2 = 0 | FGFR3 = 0 | FGR 0 | FLT3 = 0 | FYN 0 | GSK3A 0 | HER2 = 0 | INSRR 0

Nc1nc2cc(-c3ccc4ncc(C(=O)N5CCOCC5)n4c3)ccc2o1 [Serabelisib] (10 µM)
inactive: ERN1 = 0 | FGFR1 = 0 | FGFR2 = 0 | FGFR3 = 0 | FGR 0 | FLT3 = 0 | FYN 0 | GSK3A 0 | HER2 = 0 | INSRR 0

Among those listed so far, 4 have a carbonyl joined to an NH by a bond outside any ring.
C=CC(=O)Nc1cccc(-n2c(=O)cc(C)c3cnc(Nc4ccc(OCCN(C)C)cc4OC)nc32)c1 (10 µM)
inactive: ERN1 = 0 | FGFR1 = 0 | FGFR2 = 0 | FGFR3 = 0 | FGR 0 | FLT3 = 0 | FYN 0 | GSK3A 0 | HER2 = 0 | INSRR 0

Cc1nc(NC(=O)NCCc2nnn(CCF)n2)sc1-c1ccc(S(C)(=O)=O)c(F)c1 (10 µM)
inactive: ERN1 = 0 | FGFR1 = 0 | FGFR2 = 0 | FGFR3 = 0 | FGR 0 | FLT3 = 0 | FYN 0 | GSK3A 0 | HER2 = 0 | INSRR 0

COC1(C(=O)N[C@@H](C)c2ccc(-n3cc(F)cn3)nc2)CCC(c2nc(C)cc(Nc3cc(C)[nH]n3)n2)CC1 (stereo partly drawn) [trans-Pralsetinib] (2.5 µM)
inactive: ERN1 = 0 | FGFR1 = 0 | FGFR2 = 0 | FGFR3 = 0 | FGR 0 | FLT3 = 0 | FYN 0 | GSK3A 0 | HER2 = 0 | INSRR 0

CC1=C(C(=O)Nc2ccc3[nH]ncc3c2)C(c2ccc(F)cc2)NC(=O)N1 (stereo not given) (10 µM)
inactive: ERN1 = 0 | FGFR1 = 0 | FGFR2 = 0 | FGFR3 = 0 | FGR 0 | FLT3 = 0 | FYN 0 | GSK3A 0 | HER2 = 0 | INSRR 0

Further structures

COc1cc(N2CCC(N3CCN(C)CC3)CC2)ccc1Nc1nc2c(c(Nc3ccccc3S(=O)(=O)NC(C)C)n1)CCN2 [Conteltinib] (10 µM)
inactive: ERN1 = 0 | FGFR1 = 0 | FGFR2 = 0 | FGFR3 = 0 | FGR 0 | FLT3 = 0 | FYN 0 | GSK3A 0 | HER2 = 0 | INSRR 0

Cn1cc(-c2cc3c(N4CCN(c5ncc([C@@](C)(N)c6ccc(F)cc6)cn5)CC4)ncnn3c2)cn1 [Avapritinib] (2.5 µM)
inactive: ERN1 = 0 | FGFR1 = 0 | FGFR2 = 0 | FGFR3 = 0 | FGR 0 | FLT3 = 0 | FYN 0 | GSK3A 0 | HER2 = 0 | INSRR 0

O=C(CO)N1CCC(c2n[nH]c(-c3ccc(Cl)cc3)c2-c2ccncn2)CC1 (10 µM)
inactive: ERN1 = 0 | FGFR1 = 0 | FGFR2 = 0 | FGFR3 = 0 | FGR 0 | FLT3 = 0 | FYN 0 | GSK3A 0 | HER2 = 0 | INSRR 0

Cc1cc(Nc2cc(CN3CCOCC3)c3nc(C)c(Cc4ccc(Cl)cc4F)n3n2)n[nH]1 [Gandotinib] (2.5 µM)
inactive: ERN1 = 0 | FGFR1 = 0 | FGFR2 = 0 | FGFR3 = 0 | FGR 0 | FLT3 = 0 | FYN 0 | GSK3A 0 | HER2 = 0 | INSRR 0

COc1cnccc1Nc1nc(-c2nn(Cc3c(F)cc(OCCO)cc3F)c3ccccc23)ncc1OC (10 µM)
inactive: ERN1 = 0 | FGFR1 = 0 | FGFR2 = 0 | FGFR3 = 0 | FGR 0 | FLT3 = 0 | FYN 0 | GSK3A 0 | HER2 = 0 | INSRR 0

Nc1cccc(S(=O)(=O)N2CCCN(S(=O)(=O)c3ccc4c(c3)OCCO4)CC2)c1 (10 µM)
inactive: ERN1 = 0 | FGFR1 = 0 | FGFR2 = 0 | FGFR3 = 0 | FGR 0 | FLT3 = 0 | FYN 0 | GSK3A 0 | HER2 = 0 | INSRR 0

O=C(NOCCO)c1ccc2cncn2c1Nc1ccc(I)cc1F (10 µM)
inactive: ERN1 = 0 | FGFR1 = 0 | FGFR2 = 0 | FGFR3 = 0 | FGR 0 | FLT3 = 0 | FYN 0 | GSK3A 0 | HER2 = 0 | INSRR 0

O=[N+]([O-])c1ccc(Sc2cccc[n+]2[O-])c2nonc12 (2.5 µM)
inactive: ERN1 = 0 | FGFR1 = 0 | FGFR2 = 0 | FGFR3 = 0 | FGR 0 | FLT3 = 0 | FYN 0 | GSK3A 0 | HER2 = 0 | INSRR 0

COc1ccc2c(Oc3ccc(NC(=O)c4c(C)n(CC(C)(C)O)n(-c5ccccc5)c4=O)cc3F)ccnc2c1 (2.5 µM)
inactive: ERN1 = 0 | FGFR1 = 0 | FGFR2 = 0 | FGFR3 = 0 | FGR 0 | FLT3 = 0 | FYN 0 | GSK3A 0 | HER2 = 0 | INSRR 0

COc1cc(-c2cc(-c3cc(OC)c(OC)c(OC)c3)cc(C(F)P(=O)(OCOC(=O)C(C)(C)C)OCOC(=O)C(C)(C)C)c2)cc(OC)c1OC (stereo not given) [Stafia-1-dipivaloyloxymethyl ester] (2.5 µM)
inactive: ERN1 = 0 | FGFR1 = 0 | FGFR2 = 0 | FGFR3 = 0 | FGR 0 | FLT3 = 0 | FYN 0 | GSK3A 0 | HER2 = 0 | INSRR 0

CCN1C(=O)CNc2ncc(-c3ccc(-c4nc[nH]n4)nc3C)nc21 [CC-115 (hydrochloride)] (2.5 µM)
inactive: ERN1 = 0 | FGFR1 = 0 | FGFR2 = 0 | FGFR3 = 0 | FGR 0 | FLT3 = 0 | FYN 0 | GSK3A 0 | HER2 = 0 | INSRR 0

COc1c(O)cc2oc3cc(O)c(CC=C(C)C)c(O)c3c(=O)c2c1CCC(C)(C)O [Garcinone D] (2.5 µM)
inactive: ERN1 = 0 | FGFR1 = 0 | FGFR2 = 0 | FGFR3 = 0 | FGR 0 | FLT3 = 0 | FYN 0 | GSK3A 0 | HER2 = 0 | INSRR 0
